PubChem BioAssay AID1224830 – NIAID, 2016
Shown is a random part of about 18,000 reagents tested. Over the whole deposit, about 2,900 (16%) were called active. 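Calls are made per well; low scores hint the gene aids the LPS response, high scores that it dampens it.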 A number with no mark means an inactive call. Repeated entries: four replicate wells of each siRNA pool. No sequences are given here.

Assay: 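Host factors that control LPS-induced TNF expression in human macrophages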 (primary screen)
System: human THP-1 monocytic leukaemia cells, TNF dual-luciferase reporter clone, PMA-differentiated to macrophage-like cells
Knock-down reagent: siRNA pool against human genes, 50 nM
Timing: LPS for 4 h, given about 3 days after siRNA transfection
Treatment: bacterial LPS (TLR4 ligand), 10 ng/ml
Read-out: 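TNF firefly reporter luminescence divided by renilla, normalised to the plate median, then turned into a robust z-score for each replicate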
Direction: TNF reporter robust z-score: higher = stronger TNF reporter response to LPS
Active means: 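a well is active when its z-score exceeds 2.8 or falls below -1.5; control wells carry no call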

For SH3GLB2, the values are TNF reporter robust z-score -1.23.
After knock-down of SH3GLB2 the results were TNF reporter robust z-score -1.
Depletion of SH3GLB2 resulted in: TNF reporter robust z-score -1.16.
SH3GLB2 showed TNF reporter robust z-score -1.26.
Knock-down of ZNF682 gave: TNF reporter robust z-score 0.35.
Against ZNF682, the entry reads TNF reporter robust z-score 0.43.
ZNF682 showed TNF reporter robust z-score -1.03.
For ZNF682 the deposit lists TNF reporter robust z-score 1.05.
Knock-down of SMARCE1 gave: TNF reporter robust z-score -1.76 (active).
Silencing of SMARCE1 came out at: TNF reporter robust z-score -1.73 (active).
Depletion of SMARCE1 came out at: TNF reporter robust z-score -1.98 (active).
SMARCE1 scored TNF reporter robust z-score -1.62 (active).
RNF135 scored TNF reporter robust z-score 1.11.
Silencing of RNF135 came out at: TNF reporter robust z-score -0.28.
After knock-down of RNF135, the screen gave TNF reporter robust z-score 1.08.
Against RNF135, the entry reads TNF reporter robust z-score 0.25.
Against LSG1 the deposit lists TNF reporter robust z-score 1.35.
LSG1 gave TNF reporter robust z-score 1.82.
LSG1 gave TNF reporter robust z-score 0.32.
With knock-down of LSG1 the results were TNF reporter robust z-score 0.54.
Silencing of CHUK came out at: TNF reporter robust z-score -0.41.
CHUK scored TNF reporter robust z-score -1.08.
Knock-down of CHUK gave: TNF reporter robust z-score -0.28.
After knock-down of CHUK the results were TNF reporter robust z-score -0.49.
MSR1 gave TNF reporter robust z-score -1.12.
Depletion of MSR1 came out at: TNF reporter robust z-score -0.46.
For MSR1, the entry reads TNF reporter robust z-score -0.88.
Against MSR1, the entry reads TNF reporter robust z-score -0.81.
Silencing of SLC39A8 resulted in: TNF reporter robust z-score 0.76.
SLC39A8 showed TNF reporter robust z-score 1.21.
After knock-down of SLC39A8 the results were TNF reporter robust z-score 1.82.
SLC39A8 gave TNF reporter robust z-score -0.21.
Depletion of GLT8D1 came out at: TNF reporter robust z-score -0.72.
Against GLT8D1, the entry reads TNF reporter robust z-score 0.59.
Knock-down of GLT8D1 came out at: TNF reporter robust z-score -0.12.
Depletion of GLT8D1 came out at: TNF reporter robust z-score 0.44.
Knock-down of ETHE1 gave: TNF reporter robust z-score -0.22.
Depletion of ETHE1 came out at: TNF reporter robust z-score 0.82.
After knock-down of ETHE1 the results were TNF reporter robust z-score -0.92.
Knock-down of ETHE1 resulted in: TNF reporter robust z-score -0.14.
GARIN3 scored TNF reporter robust z-score -0.2.
GARIN3 gave TNF reporter robust z-score 0.67.
Silencing of GARIN3 came out at: TNF reporter robust z-score -0.4.
GARIN3 scored TNF reporter robust z-score 2.17.
With knock-down of ALG3, the record shows TNF reporter robust z-score -0.31.
Depletion of ALG3 gave: TNF reporter robust z-score 1.9.
Knock-down of ALG3 gave: TNF reporter robust z-score 0.57.
ALG3 showed TNF reporter robust z-score 2.83 (active).
